Assay results published in patent US12247064B2, “Modified ligand-gated ion channels and methods of use” (Howard Hughes Medical Institute, priority 2017, dated 2025).
Some results were stated once for a whole list of compounds, not compound by compound.

The chains behind the UniProt entries cited, without tags or fusion partners. A line that says so, or that is headed by a name, gives the form on record, which may keep a tag or linker.
UniProt P36544, with tags, fused parts or gaps G175K: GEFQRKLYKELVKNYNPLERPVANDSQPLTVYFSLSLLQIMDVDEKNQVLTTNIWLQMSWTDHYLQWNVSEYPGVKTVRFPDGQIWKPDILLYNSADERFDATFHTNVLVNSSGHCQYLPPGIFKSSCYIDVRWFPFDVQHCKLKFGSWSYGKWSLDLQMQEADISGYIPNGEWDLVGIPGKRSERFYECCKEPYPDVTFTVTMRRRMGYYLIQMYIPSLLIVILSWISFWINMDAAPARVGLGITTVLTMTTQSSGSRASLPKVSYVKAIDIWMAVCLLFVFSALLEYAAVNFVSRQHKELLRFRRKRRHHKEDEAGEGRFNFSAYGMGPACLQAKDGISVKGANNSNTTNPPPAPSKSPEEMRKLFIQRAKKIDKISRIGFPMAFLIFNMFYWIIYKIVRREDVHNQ

Molecular target: T1, α7GlyR G175K (Homo sapiens, UniProt P36544, G175K)
T1 construct: expressed in transfected cells
Assay: Agonist potency at chimeric channel
Type: cell-based
Conditions: relative to unmodified α7-GlyR

For `CN1C2CCCC1CC(NC(=O)c1nn(C)c3ccccc13)C2` (stereo not shown) [Granisetron, reference compound], the increased potency was “greater than 10 fold”.
